These are yes or no findings as the source states them, for the method shown. Binding seen in cells or lysates may run through a third protein. Binding can be weak; no strength is given.

This note sets out measurements from publication doi:10.1101/2024.08.06.606634.

This assay deals with T1, βA3/A1-crystallin (endogenous, mouse RPE) (mouse (endogenous in mouse RPE)) (UniProt P02525).
T1 sequence: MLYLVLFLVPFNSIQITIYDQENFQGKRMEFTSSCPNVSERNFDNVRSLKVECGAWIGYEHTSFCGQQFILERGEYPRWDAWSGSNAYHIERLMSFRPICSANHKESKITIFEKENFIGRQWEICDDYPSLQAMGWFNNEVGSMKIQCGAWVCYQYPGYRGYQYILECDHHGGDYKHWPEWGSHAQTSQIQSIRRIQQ
The experiment in a line: co-IP.

Regarding “casein kinase II (CK2) (endogenous, mouse RPE) (enzyme)”, the binding entry is on record as “binds”.
